Measurements taken from patent US20170140097A1, “Methods For Identifying Agents With Desired Biological Activity” (The Procter & Gamble Company, priority 2012, published 2017).
At least one compound was matched to its structure with a doubt left.

Test system: MCF7 cell line
Experiment: Signature-free query for agents with biological activity similar to estradiol in cell line MCF7 (FIG. 15)
Type: cell-based
Settings: cell line MCF7 (expresses estrogen receptors); top five and bottom five chemicals
Excerpt: Using the projection space matrix, it is possible to determine the similarity (or difference) between gene expression profiles in the projection space. The methods 100 and 110, for example, perform queries for similar biological activity (block 108) and biological dissimilarity (i.e., agents most likely to reverse a clinical endpoint) (block 112), respectively, by looking at the distances between instances depicted in the projection space matrix. Turning first to the method 100, FIG. 9 depicts a method 140 for performing a query for similar biological activity between instances mapping to two points in the projection space (e.g., for performing a query for similar activity between perturbagens) (block 108). […]
A query perturbagen (also referred to as a query agent) is then selected from the perturbagens in the projection space matrix (block 144). […] The distance from the query perturbagen in the projection space is calculated for each instance (or for a selected subset of instances) in the projection space matrix (block 146). In some embodiments, the distance is calculated as a cosine distance. In some embodiments, the distance is calculated as a Euclidean distance. […]
With reference to FIGS. 15 and 16, the effect of different perturbagens on different cell types at the transcriptional level is readily apparent. […]

## C[C@]12CC[C@@H]3c4ccc(O)cc4CC[C@H]3[C@@H]1CC[C@@H]2O [Estradiol]
  ranking according to distance from query perturbagen estradiol: Among the top five most similar chemical instances
